Laboratory results as given in the supplement of paper PMC10849652.
The list shows a part of the results. Residues, ends and D or L forms follow the SMILES beside them. *: point of attachment. Cbz = O=C(OCc1ccccc1)*

Amino acid sequences for entries named in this document (tags omitted). A change or cut given only in a name is not applied to a line headed by its entry.
UniProt O60493, whole entry, looked up: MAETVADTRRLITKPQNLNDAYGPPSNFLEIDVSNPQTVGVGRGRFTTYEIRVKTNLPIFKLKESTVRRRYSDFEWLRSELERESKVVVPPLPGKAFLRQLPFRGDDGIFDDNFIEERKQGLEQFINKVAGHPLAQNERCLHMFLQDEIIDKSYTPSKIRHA
UniProt Q9NXE4: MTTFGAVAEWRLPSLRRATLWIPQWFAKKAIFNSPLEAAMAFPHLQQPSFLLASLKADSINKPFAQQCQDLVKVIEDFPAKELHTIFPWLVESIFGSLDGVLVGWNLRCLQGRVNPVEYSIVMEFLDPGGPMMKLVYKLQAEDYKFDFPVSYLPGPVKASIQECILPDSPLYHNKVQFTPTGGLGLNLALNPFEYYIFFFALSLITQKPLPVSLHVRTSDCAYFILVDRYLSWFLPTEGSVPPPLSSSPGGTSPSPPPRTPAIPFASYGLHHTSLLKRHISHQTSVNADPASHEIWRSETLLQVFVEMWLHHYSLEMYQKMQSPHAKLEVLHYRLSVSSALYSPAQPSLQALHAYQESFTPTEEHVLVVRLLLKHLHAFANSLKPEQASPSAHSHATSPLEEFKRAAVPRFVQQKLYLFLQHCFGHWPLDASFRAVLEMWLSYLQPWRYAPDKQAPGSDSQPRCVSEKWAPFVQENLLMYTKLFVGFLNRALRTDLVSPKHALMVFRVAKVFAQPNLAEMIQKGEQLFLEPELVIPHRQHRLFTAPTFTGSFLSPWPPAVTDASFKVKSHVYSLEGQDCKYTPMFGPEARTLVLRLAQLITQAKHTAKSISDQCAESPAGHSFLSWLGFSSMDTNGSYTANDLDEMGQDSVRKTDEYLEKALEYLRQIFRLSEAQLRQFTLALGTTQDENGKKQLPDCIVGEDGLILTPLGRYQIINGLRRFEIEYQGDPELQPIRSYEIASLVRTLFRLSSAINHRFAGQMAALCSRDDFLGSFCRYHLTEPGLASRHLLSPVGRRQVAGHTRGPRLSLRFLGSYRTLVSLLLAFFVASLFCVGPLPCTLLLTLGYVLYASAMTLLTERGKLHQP
UniProt A6NHR9: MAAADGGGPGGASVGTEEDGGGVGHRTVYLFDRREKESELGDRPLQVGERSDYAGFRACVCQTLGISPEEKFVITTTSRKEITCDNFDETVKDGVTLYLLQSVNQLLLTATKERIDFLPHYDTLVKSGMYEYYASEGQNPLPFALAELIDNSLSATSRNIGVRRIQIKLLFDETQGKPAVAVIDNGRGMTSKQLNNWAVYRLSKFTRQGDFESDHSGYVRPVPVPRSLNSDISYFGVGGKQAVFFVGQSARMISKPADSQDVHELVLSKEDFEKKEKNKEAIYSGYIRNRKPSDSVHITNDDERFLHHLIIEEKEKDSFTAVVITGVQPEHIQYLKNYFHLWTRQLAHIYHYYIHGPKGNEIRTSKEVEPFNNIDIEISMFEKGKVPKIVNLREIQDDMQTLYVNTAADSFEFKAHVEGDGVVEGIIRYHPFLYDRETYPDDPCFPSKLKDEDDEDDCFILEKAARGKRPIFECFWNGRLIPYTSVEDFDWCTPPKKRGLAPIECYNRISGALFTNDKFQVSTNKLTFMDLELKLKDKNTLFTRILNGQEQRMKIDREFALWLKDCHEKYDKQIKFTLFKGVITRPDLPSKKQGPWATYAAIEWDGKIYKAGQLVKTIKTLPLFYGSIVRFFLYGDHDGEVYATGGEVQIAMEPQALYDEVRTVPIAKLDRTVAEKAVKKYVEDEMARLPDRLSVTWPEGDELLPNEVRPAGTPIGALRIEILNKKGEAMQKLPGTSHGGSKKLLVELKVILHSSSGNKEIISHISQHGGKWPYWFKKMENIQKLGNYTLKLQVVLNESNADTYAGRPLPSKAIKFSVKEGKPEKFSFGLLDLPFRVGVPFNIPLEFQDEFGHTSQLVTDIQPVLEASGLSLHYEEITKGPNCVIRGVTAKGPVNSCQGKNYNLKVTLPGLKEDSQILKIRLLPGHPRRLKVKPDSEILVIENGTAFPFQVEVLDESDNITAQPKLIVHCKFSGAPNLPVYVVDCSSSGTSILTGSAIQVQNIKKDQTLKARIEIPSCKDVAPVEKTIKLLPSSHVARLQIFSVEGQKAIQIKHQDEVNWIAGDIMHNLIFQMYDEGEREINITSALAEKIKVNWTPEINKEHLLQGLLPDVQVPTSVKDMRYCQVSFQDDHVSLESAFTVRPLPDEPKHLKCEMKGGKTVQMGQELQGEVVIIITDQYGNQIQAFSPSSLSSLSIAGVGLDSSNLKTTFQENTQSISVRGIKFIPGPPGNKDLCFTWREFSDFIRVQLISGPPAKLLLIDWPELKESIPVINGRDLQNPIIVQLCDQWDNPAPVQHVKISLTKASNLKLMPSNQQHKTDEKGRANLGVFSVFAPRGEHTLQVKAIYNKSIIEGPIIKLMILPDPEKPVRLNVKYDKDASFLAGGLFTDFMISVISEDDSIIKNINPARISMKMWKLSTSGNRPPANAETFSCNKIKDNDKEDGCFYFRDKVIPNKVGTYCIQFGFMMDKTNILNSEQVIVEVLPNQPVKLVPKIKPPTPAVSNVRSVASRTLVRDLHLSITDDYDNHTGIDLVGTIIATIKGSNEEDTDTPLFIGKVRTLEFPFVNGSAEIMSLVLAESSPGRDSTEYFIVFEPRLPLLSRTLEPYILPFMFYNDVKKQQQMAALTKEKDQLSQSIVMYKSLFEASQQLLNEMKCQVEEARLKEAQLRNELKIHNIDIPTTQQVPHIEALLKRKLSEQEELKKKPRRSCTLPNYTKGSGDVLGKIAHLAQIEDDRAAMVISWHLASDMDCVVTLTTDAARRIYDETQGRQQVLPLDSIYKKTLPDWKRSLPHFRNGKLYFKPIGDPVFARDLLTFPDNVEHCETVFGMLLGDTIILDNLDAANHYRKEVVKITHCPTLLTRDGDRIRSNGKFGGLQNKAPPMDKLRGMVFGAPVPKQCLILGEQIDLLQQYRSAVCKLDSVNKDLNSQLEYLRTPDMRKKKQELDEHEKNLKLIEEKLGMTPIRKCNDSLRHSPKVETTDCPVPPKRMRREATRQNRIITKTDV
UniProt Q99523, whole entry, looked up: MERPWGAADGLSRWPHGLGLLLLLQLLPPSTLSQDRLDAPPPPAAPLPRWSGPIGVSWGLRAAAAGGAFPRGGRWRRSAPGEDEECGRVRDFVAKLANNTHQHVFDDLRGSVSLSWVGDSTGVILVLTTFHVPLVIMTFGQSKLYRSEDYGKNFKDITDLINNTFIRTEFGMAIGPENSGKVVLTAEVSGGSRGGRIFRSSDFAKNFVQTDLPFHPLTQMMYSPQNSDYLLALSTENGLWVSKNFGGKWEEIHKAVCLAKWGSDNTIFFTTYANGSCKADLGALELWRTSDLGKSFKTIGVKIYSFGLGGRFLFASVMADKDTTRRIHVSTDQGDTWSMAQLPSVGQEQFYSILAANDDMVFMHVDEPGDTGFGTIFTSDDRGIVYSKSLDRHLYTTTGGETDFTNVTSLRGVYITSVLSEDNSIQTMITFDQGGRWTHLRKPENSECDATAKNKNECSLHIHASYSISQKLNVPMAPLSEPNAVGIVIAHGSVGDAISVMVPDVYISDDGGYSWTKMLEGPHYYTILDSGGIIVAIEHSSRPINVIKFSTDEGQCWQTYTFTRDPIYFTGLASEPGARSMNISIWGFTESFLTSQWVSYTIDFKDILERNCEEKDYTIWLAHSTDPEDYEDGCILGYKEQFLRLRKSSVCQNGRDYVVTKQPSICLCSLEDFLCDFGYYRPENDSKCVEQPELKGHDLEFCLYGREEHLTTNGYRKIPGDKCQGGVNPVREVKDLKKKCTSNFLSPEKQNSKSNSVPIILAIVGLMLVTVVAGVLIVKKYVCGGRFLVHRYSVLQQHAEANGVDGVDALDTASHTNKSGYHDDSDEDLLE
UniProt Q8WVK2: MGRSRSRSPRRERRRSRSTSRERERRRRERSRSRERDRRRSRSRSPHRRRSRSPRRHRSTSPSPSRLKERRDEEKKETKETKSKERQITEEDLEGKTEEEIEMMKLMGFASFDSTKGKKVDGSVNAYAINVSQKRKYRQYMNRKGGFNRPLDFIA
UniProt P58511: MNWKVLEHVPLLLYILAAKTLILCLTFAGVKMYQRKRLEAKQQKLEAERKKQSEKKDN
UniProt Q7Z3B0: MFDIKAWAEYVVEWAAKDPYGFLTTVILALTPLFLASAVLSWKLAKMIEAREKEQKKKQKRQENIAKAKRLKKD
UniProt Q6J4K2: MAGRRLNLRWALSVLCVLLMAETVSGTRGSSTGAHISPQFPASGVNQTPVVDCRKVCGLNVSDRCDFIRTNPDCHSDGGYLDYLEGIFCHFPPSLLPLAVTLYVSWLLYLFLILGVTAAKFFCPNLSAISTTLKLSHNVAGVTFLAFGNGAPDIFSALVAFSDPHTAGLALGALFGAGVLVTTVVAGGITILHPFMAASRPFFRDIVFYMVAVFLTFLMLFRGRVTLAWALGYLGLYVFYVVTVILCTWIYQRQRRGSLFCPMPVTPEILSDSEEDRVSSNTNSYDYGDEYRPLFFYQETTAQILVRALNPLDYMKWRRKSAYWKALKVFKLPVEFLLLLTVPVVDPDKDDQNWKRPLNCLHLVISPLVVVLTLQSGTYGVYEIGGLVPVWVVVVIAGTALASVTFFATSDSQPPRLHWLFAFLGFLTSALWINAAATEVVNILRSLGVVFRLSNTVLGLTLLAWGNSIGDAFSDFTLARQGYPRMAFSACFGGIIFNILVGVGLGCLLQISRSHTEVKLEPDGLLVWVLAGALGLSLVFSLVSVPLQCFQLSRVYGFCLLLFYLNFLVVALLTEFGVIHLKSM
UniProt P03973: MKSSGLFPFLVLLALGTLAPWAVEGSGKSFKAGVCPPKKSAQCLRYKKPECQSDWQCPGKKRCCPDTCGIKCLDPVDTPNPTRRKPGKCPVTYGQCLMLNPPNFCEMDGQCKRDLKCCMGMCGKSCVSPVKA
UniProt Q9NRS6: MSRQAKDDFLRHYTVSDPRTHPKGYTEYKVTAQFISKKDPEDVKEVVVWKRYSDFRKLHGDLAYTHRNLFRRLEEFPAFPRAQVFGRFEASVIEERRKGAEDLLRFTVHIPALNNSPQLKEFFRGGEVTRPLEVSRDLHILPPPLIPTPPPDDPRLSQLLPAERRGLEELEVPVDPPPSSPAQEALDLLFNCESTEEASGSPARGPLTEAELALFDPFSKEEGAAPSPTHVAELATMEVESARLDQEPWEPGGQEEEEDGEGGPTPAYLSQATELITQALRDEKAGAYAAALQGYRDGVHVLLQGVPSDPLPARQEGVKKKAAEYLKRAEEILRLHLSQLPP
UniProt O75971: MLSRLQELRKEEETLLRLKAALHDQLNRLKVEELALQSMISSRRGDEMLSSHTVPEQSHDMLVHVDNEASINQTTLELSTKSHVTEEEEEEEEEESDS
UniProt Q02086: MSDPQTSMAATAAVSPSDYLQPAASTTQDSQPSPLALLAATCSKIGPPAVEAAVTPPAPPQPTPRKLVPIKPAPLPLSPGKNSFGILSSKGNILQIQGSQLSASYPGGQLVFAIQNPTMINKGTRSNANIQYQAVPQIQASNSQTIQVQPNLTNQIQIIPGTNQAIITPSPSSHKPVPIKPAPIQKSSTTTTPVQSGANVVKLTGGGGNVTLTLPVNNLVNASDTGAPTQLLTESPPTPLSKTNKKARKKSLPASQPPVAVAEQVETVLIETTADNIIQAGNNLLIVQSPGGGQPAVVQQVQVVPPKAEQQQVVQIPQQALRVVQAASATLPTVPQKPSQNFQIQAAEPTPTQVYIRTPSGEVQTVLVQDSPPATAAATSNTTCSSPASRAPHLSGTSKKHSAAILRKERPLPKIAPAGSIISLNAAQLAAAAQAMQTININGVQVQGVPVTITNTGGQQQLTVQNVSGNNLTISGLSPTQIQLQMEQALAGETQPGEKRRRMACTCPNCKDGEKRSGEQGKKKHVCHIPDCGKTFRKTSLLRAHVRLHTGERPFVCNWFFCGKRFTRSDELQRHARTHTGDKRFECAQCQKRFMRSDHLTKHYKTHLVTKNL
UniProt P17405: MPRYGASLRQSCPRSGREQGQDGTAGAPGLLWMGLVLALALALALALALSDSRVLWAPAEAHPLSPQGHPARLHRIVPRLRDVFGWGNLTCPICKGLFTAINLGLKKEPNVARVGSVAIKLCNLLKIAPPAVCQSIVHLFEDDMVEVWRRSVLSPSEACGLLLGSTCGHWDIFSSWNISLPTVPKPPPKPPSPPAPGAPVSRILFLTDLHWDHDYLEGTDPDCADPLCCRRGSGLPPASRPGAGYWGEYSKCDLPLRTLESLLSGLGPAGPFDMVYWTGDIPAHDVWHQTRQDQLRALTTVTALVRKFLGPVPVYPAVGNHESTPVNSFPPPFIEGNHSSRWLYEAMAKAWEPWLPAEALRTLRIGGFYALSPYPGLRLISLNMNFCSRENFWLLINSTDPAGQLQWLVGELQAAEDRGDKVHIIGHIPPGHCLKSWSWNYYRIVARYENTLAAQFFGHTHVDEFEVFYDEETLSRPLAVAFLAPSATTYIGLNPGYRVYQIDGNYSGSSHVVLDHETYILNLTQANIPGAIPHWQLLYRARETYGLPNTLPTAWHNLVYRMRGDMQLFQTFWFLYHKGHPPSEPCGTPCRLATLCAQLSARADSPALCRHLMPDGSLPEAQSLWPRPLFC

Key:
Test in all cases: log2 fold change, soluble protein after heating vs DMSO (PISA); higher = thermal stabilisation; K562 cells, 10 uM, 30 min; active = over 0.2 and 3.5 SD of the protein, either way, in both replicates (recomputed)
[1] = compound: C1COCCN1CCN2C3=CC=CC=C3N=C2NC(=O)C4=CC(=CC=C4)[N+](=O)[O-] [IRAK-1-4 Inhibitor I]
How it was run: (§1)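 K562 cells (2×10^6 cells/mL) were treated with 10 μM compound for 30 min, and aliquots were heated for 3 min over 48°C-58°C. Pooled aliquots were extracted in PBS with 0.5% NP-40 at 4°C, and the supernatant after 21,000xg for 90 min was measured by TMTpro 16plex LC-MS/MS with channel sums equalised. Reported thermal stability, relative to control samples and from duplicates, is a log2 fold change.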

[2] = compound: C=CC(=O)N1CCC[C@@H](n2nc(-c3ccc(Oc4ccccc4)cc3)c3c(N)ncnc32)C1 [ibrutinib]
How it was run: as §1

[3] = compound: CC(=O)c1cnc2ccc(-c3cc(Cl)c(O)c(Cl)c3)nc2c1N[C@H]1CC[C@H](CN(C)C)CC1
How it was run: as §1

[4] = compound: CC(C)(C)Cn1c(N)nc2ccc(-c3[nH]c(C(C)(C)C)nc3-c3ccc(F)cc3)nc21 [ralimetinib]
How it was run: as §1

[5] = compound: CC(C)(O)CC(=O)NCCn1ccc2ncnc(Nc3ccc(Oc4cccc(C(F)(F)F)c4)c(Cl)c3)c21
How it was run: as §1

[6] = compound: CC(C)C1=C2N=C(C=C(N2N=C1)NCC3=CC=CC=C3)NCCCCCCN
How it was run: as §1

[7] = compound: CC(C)C[C@@H](C=O)NC(=O)[C@H](CC(C)C)NC(=O)[C@H](CC(C)C)NC(=O)OCc1ccccc1
How it was run: as §1

[8] = compound: CC(C)N(C[C@H]1O[C@@H](n2cnc3c(N)ncnc32)[C@H](O)[C@@H]1O)[C@H]1C[C@@H](CCc2nc3cc(C(C)(C)C)ccc3[nH]2)C1 [pinometostat]
How it was run: as §1

[9] = compound: CC1=C(C2=C(C=C1)C(=O)C3=CC=CC=C3N2CCCN)C
How it was run: as §1

[10] = compound: CC1=C(C(CC(=O)N1)C2=CC=C(C=C2)C(F)(F)F)C(=O)NC3=C(C=C4C(=C3)C=NN4)F
How it was run: as §1

Row | Target | log2 fold change [1] | log2 fold change [2] | log2 fold change [3] | log2 fold change [4] | log2 fold change [5] | log2 fold change [6] | log2 fold change [7] | log2 fold change [8] | log2 fold change [9] | log2 fold change [10]
1 | SNX3 (UniProt O60493) | inactive: -0.049 | inactive: 0.011 | inactive: -0.028 | inactive: -0.059 | inactive: -0.104 | inactive: -0.187 | inactive: 0.084 | inactive: 0.073 | inactive: 0.053 | –
2 | SMPD4 isoform 4 (UniProt Q9NXE4) | inactive: -0.034 | inactive: -0.044 | inactive: 0.12 | inactive: -0.072 | inactive: -0.095 | active: -0.279 | inactive: 0.005 | inactive: -0.002 | inactive: 0.038 | –
3 | SMCHD1 (UniProt A6NHR9) | inactive: -0.268 | inactive: -0.007 | inactive: -0.344 | inactive: 0.108 | inactive: 0.068 | inactive: -0.067 | inactive: 0.038 | inactive: 0.092 | inactive: 0.406 | –
4 | SOAT1 (UniProt P35610) | inactive: 0.1 | inactive: -0.008 | inactive: -0.031 | inactive: 0.031 | inactive: -0.04 | inactive: -0.014 | inactive: 0.303 | inactive: -0.017 | inactive: 0.053 | –
5 | SNX1 (UniProt Q13596) | inactive: 0.022 | inactive: 0.022 | inactive: -0.227 | inactive: 0.033 | inactive: -0.288 | inactive: -0.246 | inactive: 0.034 | inactive: 0.014 | inactive: 0.036 | –
6 | SORT1 (UniProt Q99523) | inactive: 0.044 | inactive: 0.044 | inactive: 0.031 | inactive: -0.005 | inactive: -0.027 | inactive: -0.202 | inactive: -0.028 | inactive: -0.03 | inactive: -0.019 | –
7 | SNRNP27 (UniProt Q8WVK2) | inactive: 0.033 | inactive: 0.002 | inactive: -0.03 | inactive: -0.118 | inactive: 0.018 | inactive: 0.035 | inactive: 0.054 | inactive: -0.04 | inactive: -0.043 | –
8 | SMIM11A (UniProt P58511) | inactive: 0.021 | inactive: 0.214 | – | – | – | – | – | inactive: -0.013 | – | inactive: -0.071
9 | SMIM15 (UniProt Q7Z3B0) | inactive: 0.001 | inactive: 0.176 | inactive: -0.233 | – | inactive: 0.132 | inactive: 0.005 | – | inactive: -0.16 | inactive: 0.007 | inactive: -0.155
10 | SMPD4 isoform 2 (UniProt Q9NXE4) | inactive: 0.016 | inactive: -0.156 | inactive: 0.196 | – | – | – | – | inactive: 0 | inactive: 0.115 | –
11 | SMG9 (UniProt Q9H0W8) | inactive: 0.015 | inactive: -0.107 | inactive: -0.065 | – | inactive: 0.071 | inactive: -0.161 | – | inactive: 0.049 | inactive: 0.153 | –
12 | SLC8B1 (UniProt Q6J4K2) | inactive: 0.096 | inactive: -0.091 | inactive: 0.112 | inactive: -0.093 | – | inactive: -0.378 | inactive: 0.048 | inactive: 0.019 | – | –
13 | SNTA1 (UniProt Q13424) | inactive: -0.022 | inactive: 0 | inactive: 0.057 | inactive: -0.073 | inactive: -0.017 | – | inactive: 0.018 | inactive: 0.016 | inactive: -0.029 | inactive: -0.086
14 | SLPI (UniProt P03973) | inactive: -0.001 | – | – | inactive: 0.084 | – | – | inactive: -0.557 | inactive: -0.463 | – | –
15 | SMCR8 (UniProt Q8TEV9) | inactive: 0.041 | inactive: 0.13 | inactive: -0.133 | – | inactive: -0.02 | inactive: -0.078 | – | inactive: 0.049 | inactive: 0.038 | inactive: -0.003
16 | SNX15 (UniProt Q9NRS6) | inactive: -0.031 | inactive: -0.112 | inactive: -0.111 | inactive: -0.051 | – | – | inactive: 0.021 | inactive: -0.069 | inactive: -0.016 | –
17 | SMIM4 (UniProt Q8WVI0) | inactive: -0.076 | inactive: 0.059 | inactive: -0.054 | – | inactive: -0.151 | inactive: 0.164 | – | inactive: 0.105 | inactive: 0.068 | inactive: -0.02
18 | SMAD2 (UniProt Q15796) | inactive: -0.145 | inactive: 0.05 | inactive: -0.091 | inactive: -0.069 | inactive: -0.088 | inactive: -0.015 | inactive: 0.124 | inactive: -0.125 | inactive: 0.079 | –
19 | SNX19 (UniProt Q92543) | inactive: -0.059 | – | – | – | inactive: -0.074 | inactive: -0.062 | – | inactive: 0.114 | – | –
20 | SPAG9 isoform 4 (UniProt O60271) | inactive: -0.027 | inactive: 0.349 | inactive: 0.14 | inactive: 0.191 | – | inactive: -0.202 | inactive: 0.049 | inactive: 0.061 | inactive: -0.243 | –
21 | SMU1 isoform 2 (UniProt Q2TAY7) | inactive: -0.035 | inactive: -0.27 | – | – | – | – | – | inactive: -0.162 | – | –
22 | SNAPC5 (UniProt O75971) | inactive: -0.046 | inactive: -0.043 | inactive: 0.006 | – | inactive: -0.012 | inactive: 0.076 | – | inactive: -0.031 | inactive: 0.132 | inactive: 0.242
23 | SMIM1 (UniProt B2RUZ4) | inactive: 0.142 | inactive: -0.139 | inactive: 0.151 | – | – | inactive: 0.041 | – | inactive: -0.02 | inactive: -0.077 | inactive: 0.07
24 | SMDT1 (UniProt Q9H4I9) | inactive: 0.039 | inactive: 0.036 | inactive: -0.026 | – | inactive: -0.012 | – | – | inactive: -0.043 | inactive: 0.027 | –
25 | SMG7 isoform 4 (UniProt Q92540) | inactive: -0.108 | inactive: -0.108 | – | inactive: 0.152 | inactive: 0.06 | inactive: -0.117 | inactive: 0.012 | inactive: 0.07 | inactive: 0.056 | inactive: -0.086
26 | SLFN14 (UniProt P0C7P3) | inactive: -0.674 | inactive: 0.069 | inactive: 0.276 | inactive: 0.136 | inactive: -0.03 | – | inactive: 0.229 | inactive: 0.468 | inactive: -0.715 | inactive: 0.025
27 | SMARCD2 (UniProt Q92925) | inactive: -0.116 | – | inactive: -0.372 | – | – | inactive: -0.302 | – | inactive: 0.069 | inactive: 0.076 | –
28 | SP2 (UniProt Q02086) | inactive: -0.126 | – | inactive: -0.472 | – | – | – | – | inactive: 0.212 | – | –
29 | SNRPN isoform 2 (UniProt P63162) | inactive: 0.026 | – | inactive: -0.132 | inactive: 0.086 | – | – | inactive: -0.031 | inactive: -0.053 | – | –
30 | SMPD1 (UniProt P17405) | inactive: -0.169 | – | inactive: 0.055 | inactive: -0.141 | – | – | inactive: -0.045 | inactive: 0.041 | – | –

Records 15 to 16, reprinted for reference:
Row | Target | log2 fold change [1] | log2 fold change [2] | log2 fold change [3] | log2 fold change [4] | log2 fold change [5] | log2 fold change [6] | log2 fold change [7] | log2 fold change [8] | log2 fold change [9] | log2 fold change [10]
15 | SMCR8 (UniProt Q8TEV9) | inactive: 0.041 | inactive: 0.13 | inactive: -0.133 | – | inactive: -0.02 | inactive: -0.078 | – | inactive: 0.049 | inactive: 0.038 | inactive: -0.003
16 | SNX15 (UniProt Q9NRS6) | inactive: -0.031 | inactive: -0.112 | inactive: -0.111 | inactive: -0.051 | – | – | inactive: 0.021 | inactive: -0.069 | inactive: -0.016 | –
